The other results are listed elsewhere or left out. Repeats are few or missing, and single values can be far off.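 Imaging used 1,536-well plates; nuclei positive for cleaved PARP by antibody were divided by total DNA-stained nuclei to yield the apoptosis fraction. Doses for screening kept most cells viable, and cell lines differ markedly in resting and induced cleaved-PARP levels.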
system: IPC-298; test: cleaved PARP positive nuclei fraction relative to DMSO control; melanoma cells; higher = more apoptosis; conditions: library dose: low library concentration; 72 h

Structure (SMILES) | cleaved PARP positive nuclei fraction [%]
CN(c1ncccc1CNc1nc(Nc2ccc3c(c2)CC(=O)N3)ncc1C(F)(F)F)S(C)(=O)=O + COc1ccc(-c2ccc3c(N4CCOCC4)nc(N4C[C@@H](C)O[C@@H](C)C4)nc3n2)cc1CO [KU0063794] (first compound 0.08 µM, partner dose 0.02 µM) | 100
CCN(CC)CCNC(=O)c1c(C)[nH]c(/C=C2\C(=O)Nc3ccc(F)cc32)c1C [sunitinib] + CCN(CC)CCCCNc1ncc2cc(-c3cc(OC)cc(OC)c3)c(NC(=O)NC(C)(C)C)nc2n1 [PD173074] (first compound 0.4 µM, partner dose 0.1 µM) | 185
Cn1cnc2c(F)c(Nc3ccc(Br)cc3Cl)c(C(=O)NOCCO)cc21 [selumetinib] + O=C(Nc1ccccc1)c1cc([N+](=O)[O-])ccc1Cl [GW9662] (first compound 0.015 µM, partner dose 2 µM) | 138
C[C@@H](N)c1ccc(C(=O)Nc2ccnc3[nH]ccc23)cc1 + COc1ccc2c(c1)CCC1C2CCC2(C)C(NCCCCCCN3C(=O)C=CC3=O)CCC12 [U73122] (first compound 0.4 µM, partner dose 0.4 µM) | 283
CC(=O)O[C@@]12CO[C@@H]1C[C@H](O)[C@@]1(C)C(=O)[C@H](O)C3=C(C)[C@@H](OC(=O)[C@H](O)[C@@H](NC(=O)OC(C)(C)C)c4ccccc4)C[C@@](O)([C@@H](OC(=O)c4ccccc4)[C@H]21)C3(C)C [Docetaxel] + COc1ccc(-c2ccc3c(N4CCOCC4)nc(N4C[C@@H](C)O[C@@H](C)C4)nc3n2)cc1CO [KU0063794] (first compound 0.0001 µM, partner dose 0.02 µM) | 173

— the supplement of paper PMC4604168 (melanoma cell lines)
